In all, about 33,000 sequences were measured (“E-score (-0.5 to 0.5)”: median about -0.016, highest 2% from about 0.3 on). The list shows a part of the results.
Target: T1, Yer184c (UniProt P39961)
T1 sequence: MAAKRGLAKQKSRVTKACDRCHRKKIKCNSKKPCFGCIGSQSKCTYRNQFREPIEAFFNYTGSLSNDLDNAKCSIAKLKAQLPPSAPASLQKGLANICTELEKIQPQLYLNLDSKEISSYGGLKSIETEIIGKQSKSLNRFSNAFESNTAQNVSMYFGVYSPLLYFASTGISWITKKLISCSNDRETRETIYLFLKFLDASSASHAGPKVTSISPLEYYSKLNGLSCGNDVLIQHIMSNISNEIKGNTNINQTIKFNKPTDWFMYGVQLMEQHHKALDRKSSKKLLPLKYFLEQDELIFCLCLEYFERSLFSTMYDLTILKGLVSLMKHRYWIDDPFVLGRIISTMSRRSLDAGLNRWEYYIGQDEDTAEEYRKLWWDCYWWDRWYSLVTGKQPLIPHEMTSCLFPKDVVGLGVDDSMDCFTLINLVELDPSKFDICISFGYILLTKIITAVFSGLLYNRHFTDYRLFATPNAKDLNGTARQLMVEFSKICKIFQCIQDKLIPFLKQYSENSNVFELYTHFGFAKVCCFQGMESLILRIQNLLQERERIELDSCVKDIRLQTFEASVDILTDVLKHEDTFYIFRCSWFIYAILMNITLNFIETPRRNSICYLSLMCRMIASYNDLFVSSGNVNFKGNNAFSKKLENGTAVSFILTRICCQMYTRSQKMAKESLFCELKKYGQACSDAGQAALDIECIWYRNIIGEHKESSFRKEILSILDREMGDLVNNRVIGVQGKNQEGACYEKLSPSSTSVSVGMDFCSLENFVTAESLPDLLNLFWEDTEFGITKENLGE
Assay: PBM E-score (8-mer binding enrichment) (E-score (-0.5 to 0.5)); higher = stronger / more preferred TF binding
Conditions: protein concentration: 100 nM; construct: GST-full length
How it was run: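 PURExpress in vitro transcription/translation supplied GST-tagged yeast transcription factors, either full-length or DNA-binding domain. Applied at about 100-200 nM to universal all-10-mer Agilent arrays double-stranded by primer extension, the bound protein was detected with fluorescent anti-GST. E-scores, modified Wilcoxon-Mann-Whitney statistics, were given by the Universal PBM Analysis Suite to ungapped eight-base words pooled with their reverse complements after masliner normalisation.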

Sequence	PBM E-score
CATACCCC	-0.164
GTTATCAA	0.0542
CCAATAAC	0.0852
CAAGCTTC	-0.0338
ACGGAACA	0.303
ACCGGCTG	0.191
ATGATGGA	-0.0127
ATCGATCG	0.0375
AATAGCTC	-0.227
CGACACGC	-0.0996
GGTCATAC	-0.107
GCCCCTCA	-0.252
AACGTGAA	-0.0976
ATCAGCGA	0.0903
CTTATGGA	-0.109
AAAGCGCG	-0.0924
TGTTTCAA	0.153
ATTTCCGA	0.359
CTAGACCC	-0.174
GCAATATA	-0.0561
AAGTCTGC	-0.12
AAACAGCA	0.118
AACAAAGA	0.168
CTGGAGTA	-0.192
CTGTGCGA	-0.127

Sequence	PBM E-score
CAGGCTGG	-0.215
CTAATCCC	-0.108
AAGCACAC	-0.138
ATCCCGGC	0.299
CTATCGGA	0.319
AAACCTCC	-0.152
AGTTCTGC	0.0148
ACTAATAA	0.238
CGCGTACG	0.0543
CGATCTAG	-0.142
ATGGGCTC	-0.238
ACTCCGAT	0.0525
AGACCTTG	-0.252
CGTGAGTC	-0.227
GCTACGGA	0.0651
CAACACGC	-0.119
CGCCCATC	-0.172
AGACTTCG	-0.197
ACGCCTAA	-0.00122
ACCCCCAA	-0.108
ATTGATAC	0.176
CACATAAA	0.285
GGTGTGAC	-0.271
CAACACTC	0.009
CGCCCATA	-0.176

Sequence	PBM E-score
TAGTCAGA	-0.0487
GCCGTGTA	-0.0481
ACTGTTGC	0.0533
GCCGACCC	0.0514
GAGTCAAA	-0.0703
AGCTAAGA	0.117
ACGTCATC	-0.245
CATTCTCG	0.049
CCATGGGC	-0.2
CATGATCC	-0.0443
GCGCCGAA	0.343
ACCCAGCC	-0.221
GGCGGTCA	0.0102
TAGTTAAA	0.252
CCTACCTA	-0.148
AAAGCCGA	0.174
CAGAGCCC	-0.157
CCGTGGGA	-0.134
CGAGCGAA	0.0664
CGTCGTAG	-0.00822
TTGCCCAA	-0.029
GTCGAGAC	0.0528
CCTTGACC	-0.015
GGCGAGAA	0.142
AGTCCGTG	-0.165

Sequence	PBM E-score
CTGAACTA	-0.0652
GAGGGTCC	-0.178
AACTCATG	0.0146
AATTGCAG	0.0393
ACGGCACG	0.194
CGTATGTA	-0.0664
TACTCACA	-0.0514
CGCTCAGC	0.00126
CGAGTGAA	0.223
GAAATGTA	0.209
CGTCTGCA	-0.104
AGATGTTA	-0.153
TGAATTCA	0.104
GGACATCA	0.195
AAAAAGTT	0.0412
AAACGCCT	-0.234
CAGATACG	-0.0491
AGATATGA	0.078
CCACGTCA	-0.27
GATCGTGA	-0.0384
CCCCGCAC	-0.203
AATGTAAC	0.146
AGCAAATC	0.0793
GGAGAGGA	-0.204
AGGGTCAC	-0.375

Already shown: entries from further up.
Sequence	PBM E-score
GAAATGTA	0.209
CGTCTGCA	-0.104
AGATGTTA	-0.153
TGAATTCA	0.104
GGACATCA	0.195
AAAAAGTT	0.0412

(listing goes on)

Sequence	PBM E-score
CCAATCCG	0.174
TAAATGTA	0.00083
GAGGGTTA	-0.193
CTCGAAGA	0.0345
ATCTAGAC	-0.0638
GTCTGAGA	-0.0915
GACTTCCA	-0.16
CATCTCAA	0.00945
AAATCTCA	-0.0709
CAGAATAC	-0.0319
TGACCGCA	0.0226
AAGGACAG	-0.0138
ATATCGTA	0.0323
GTTAGGTA	0.0787
CTGCGAAC	-0.196
AGATATAC	0.0908
AATGGAGG	-0.198
ACAGGAGG	-0.228
GCGACGGA	0.055
ATAGAGCC	-0.016
GTAGTAAA	0.13
ACAACTAC	1e-05
GTCTTCAC	-0.0806
GGGGCCTA	-0.391
CTATCAAG	-0.0675

Looked up one by one from the entries so far:
Sequence	PBM E-score
GCCCCTCA	-0.252
GCCGACCC	0.0514

Later entries

Sequence	PBM E-score
GTCTTCCA	-0.115
ATAATTAC	0.265
ACGATAAT	0.173
ACATAATG	0.123
CGCTATAG	-0.204
ATCCGCAG	0.123
GCACGTAA	-0.182
GGAAGCGA	-0.00432
GCTTGACC	-0.0737
ACCGGCTA	0.284
AAGGATAA	-0.064
AAAGGAGA	-0.197
AGAAACGC	-0.00284
ATGTCCGG	0.373
GGCAGGTA	-0.0757
CCAAGGTA	-0.0797
AAAGACTC	-0.158
GTGTTAAA	0.181
ATATTAGA	0.209
CCATGCCG	0.201
ATAGACTG	-0.0118
CGAAACTC	-0.0103
CCGGAACG	0.329
AAGGATCT	-0.168
AGCAGGAA	-0.00578

Sequence	PBM E-score
CTGTGATA	0.0316
ATCCGAAT	0.419
CGTCGTCA	-0.0193
TCGAACCA	-0.104
GCAAGAGA	-0.059
GCTCGTAC	-0.132
GGCGGTTA	0.00801
ACCGATTC	0.0082
GAATCATC	0.0812
CATCTGAA	0.173
AGTCAGGC	-0.0159
CTGTGGTC	-0.0663
AGCATTAA	-0.0361
ACGCGCGC	0.156
AAACCCCA	-0.21
CTATCAGA	-0.0202
ACCTCTAA	0.0296
AGGCTGGG	-0.309
AATACATG	0.00545
CGATATTC	0.155
ACGACCAG	-0.135
TGTATTAA	0.223
GAGAAGAA	0.176
TGCCAGAA	-0.0249
ACTGAGAG	-0.112

Sequence	PBM E-score
AGCGATTG	-0.049
ACTTCTAA	0.0436
GCCCGTCC	-0.209
TACTTGCA	-0.019
ACGGTACG	0.0949
AGTCGAAA	-0.143
CCTACATA	-0.133
GGGTCTGA	-0.0993
AGGTTCTG	-0.137
GTGGCATA	-0.125
GATACACA	-0.156
CATTTTGG	0.014
AGAAATAG	0.13
CTAAATCA	0.073
GTACCCGA	-0.0538
ACACTGCT	-0.244
CTCTCCGA	0.149
TACATGAA	-0.0446
CACCTCGG	0.201
ACTGGACT	-0.112
GGAACTCC	0.124
AGGACATA	0.089
GACATAAA	0.128
GTCCTGTA	0.00961
GTATCCTA	-0.0431

Sequence	PBM E-score
CACAGACG	-0.113
TAGTTTCA	0.0864
GTAAATAA	0.151
GACAGTCA	-0.0835
AGTAGCTC	-0.00154
ATATGCCG	0.234
ACTCGTGA	-0.19
CGTCCCGC	0.0669
AACGTTCG	0.0214
AAGATAGC	0.0451
AAGCTTTG	-0.00525
TCAGGTCA	0.0231
ATGTGAGC	-0.298
CCGGGTGA	0.258
AAGTGCGT	-0.109
CTCGGCAG	0.31
AAGCACCT	-0.0698
GCATAAAA	0.217
CACCTGCG	-0.113
